# Measurements: PubChem BioAssay (EPA / NIEHS)
# Inconclusive results, whose numbers are uncertain, are shown with a selection of clear calls. Potencies beside an inconclusive call are fits to weak or partial responses and may not hold up. Calls of active or inactive are those of the source. How the source made its calls: active means hit-call score of the fitted dose curve at least 0.9, where 1 is the maximum; inconclusive means response in the unintended direction; inactive means score below 0.9.
# Tested on: zebrafish Androgen Receptor (AR), gene 100005148
# Assay: ATG_zfAR_XSP1: Attagene TRANS-FACTORIAL Multi-Species (XSP1) HepG2 Assay for zebrafish Androgen Receptor (AR) (AID 2283771)
# Protocol: ATG_XSP1_multi-species_TRANS is a cell-based, multiplexed assay created by modifying the existing Attagene TRANS-FACTORIAL system to include a panel of nuclear receptors from some or all the following species: human (Homo sapiens), mouse (Mus musculus), frog (Xenopus laevis), zebrafish (Danio rerio), chicken (Gallus gallus), and turtle (Chrysemys picta). The ECOTOX-FACTORIAL format uses HepG2, a human liver cell line, with measurements taken at 24 hours after chemical dosing in a 24-well plate. Xsp1 included 3 nM 6-alpha-fluorotestosterone to partially stimulate the androgen receptor.ATG_zfAR_XSP1 is one of 29 assay components measured or calculated from the ATG_XSP1_multi-species_TRANS assay. It is designed to make measurements of mRNA induction, a form of inducible reporter, as detected with fluorescence intensity signals by Reverse transcription polymerase chain reaction (RT-PCR) and Capillary electrophoresis technology.The assay endpoint ATG_zfAR_XSP1 was analyzed in the positive analysis fitting direction relative to DMSO as the negative control and baseline of activity. Using a type of inducible reporter, measures of mRNA for gain-of-signal activity can be used to understand the reporter gene at the transcription factor-level as they relate to the gene AR. Furthermore, this assay endpoint can be referred to as a primary readout, because this assay has produced multiple assay endpoints where this one serves a reporter gene function. To generalize the intended target to other relatable targets, this assay endpoint is annotated to the nuclear receptor intended target family, where the subfamily is steroidal.
# Human liver HepG2 cells are transiently transfected with multiple reporter transcription units (MRTUs) in 6-well plates using FuGene 6 reagent (Roche; 3 ml FuGene/1 mg DNA). The MRTU constructs are regulated by a cis-regulating element (promoter). […] A major difference between the CIS and TRANS system is that in CIS activities of endogenous TFs are measured, whereas the TRANS assay evaluates changes in activities of exogenous, chimeric NR-Gal4 proteins. […] At the end of 24 hour incubation, total RNA was isolated using TriZol reagent (Invitrogen). The isolated RNA is then reverse-transcribed using oligo(dT) primer and Mo-MLV reverse transcriptase (Invitrogen) with DNAse I (Ambion) treatment for 30 min. The one-tenth of the produced cDNA was amplified by PCR using Taq DNA polymerase (Invitrogen) and two reporter sequence-specific primers. The PCR products were fluorescently labeled by primer extension with 6-arboxyfluorescein (6-FAM) 5'-labeled reporter sequence-specific primer (2 min at 95 C, 20 s at 68 C and 10 min at 72 C) and these products were digested with 5U of HpaI (New England Biolabs) for 2h at 37 C. The fragments were purified using Qiaquick PCR columns (Qiagen), analyzed on an ABI 3130xL genetic analyzer (Applied Biosystems) with peak positions identified by using a set of X-rhodamine (ROX)-labeled MapMarker1000 molecular weight standards (BioVentures). The raw capillary electrophoresis data was processed using Attagraph software (Attagene).
Compound,AC50,outcome
COP(=S)(OC)Oc1ccc(SC)c(C)c1,inconclusive: 0.598 µM,–
CCCN(CCC)c1c([N+](=O)[O-])cc(S(N)(=O)=O)cc1[N+](=O)[O-],–,inactive
Cc1c(COC(=O)[C@@H]2[C@H](/C=C(\Cl)C(F)(F)F)C2(C)C)cccc1-c1ccccc1,inconclusive: 24.6 µM,–
COP(=S)(OC)Oc1nc(Cl)c(Cl)cc1Cl,inconclusive: 6.04 µM,–
CCCCNC(=O)OCC#CI,inconclusive: 11.1 µM,–
ClC(Cl)=C(c1ccc(Cl)cc1)c1ccc(Cl)cc1,–,inactive
CCCCOC(=O)c1ccccc1C(=O)OCCCC,inconclusive: 0.877 µM,–
CC(C)(C)c1ccc(CSc2cnn(C(C)(C)C)c(=O)c2Cl)cc1,–,inactive
C[C@]12C=CC3=C4CCC(=O)C=C4CC[C@H]3[C@@H]1CC[C@@H]2O,active: 0.0325 µM,–
C[C@]12CCC(=O)C[C@@H]1CC[C@@H]1[C@@H]2CC[C@]2(C)[C@@H](O)CC[C@@H]12,active: 0.0358 µM,–
C=CC1(C)OC(=O)N(c2cc(Cl)cc(Cl)c2)C1=O (stereo not given),–,inactive
CC1(C)C(C=C(Cl)Cl)C1C(=O)OC(C#N)c1cccc(Oc2ccccc2)c1 (stereo not given),inconclusive: 100 µM,–
CC(C)(C)c1cc(O)ccc1O,inconclusive: 33.4 µM,–
CC(C)(O)C(=O)Nc1ccc([N+](=O)[O-])c(C(F)(F)F)c1,inconclusive: 88.9 µM,–
CC1(C)C(C=C(Cl)Cl)C1C(=O)OC(C#N)c1ccc(F)c(Oc2ccccc2)c1 (stereo not given),–,inactive
Clc1ccc(C(c2ccc(Cl)cc2)C(Cl)Cl)cc1,inconclusive: 33.4 µM,–
COP(=S)(OC)Oc1ccc([N+](=O)[O-])c(C)c1,inconclusive: 7.38 µM,–
CCN(CC)C(=O)C(C)Oc1cccc2ccccc12 (stereo not given),inconclusive: 0.0738 µM,–
CCOCN(C(=O)CCl)c1c(C)cccc1CC,inconclusive: 173 µM,–

# 3 entries from above, as tab-separated lines.
Compound	AC50	outcome
CC1(C)C(C=C(Cl)Cl)C1C(=O)OC(C#N)c1cccc(Oc2ccccc2)c1 (stereo not given)	inconclusive: 100 µM	–
CC(C)(C)c1cc(O)ccc1O	inconclusive: 33.4 µM	–
CC(C)(O)C(=O)Nc1ccc([N+](=O)[O-])c(C(F)(F)F)c1	inconclusive: 88.9 µM	–

# Continuation:

Compound,AC50,outcome
Oc1ccc(C(c2ccc(O)cc2)(C(F)(F)F)C(F)(F)F)cc1,inconclusive: 48 µM,inactive
CC(C)CCCCCCCOC(=O)c1ccccc1C(=O)OCCCCCCCC(C)C,–,inactive
CO/C=C(/C(=O)OC)c1ccccc1Oc1cc(Oc2ccccc2C#N)ncn1,inconclusive: 0.00572 µM,–
CON(C)C(=O)Nc1ccc(Cl)c(Cl)c1,inconclusive: 0.00914 µM,–
CC(C)(c1ccccc1)c1ccc(O)cc1,–,inactive
CCCN(CCOc1c(Cl)cc(Cl)cc1Cl)C(=O)n1ccnc1,inconclusive: 33.4 µM,–
O=C1C2(Cl)C3(Cl)C4(Cl)C(Cl)(Cl)C5(Cl)C3(Cl)C1(Cl)C5(Cl)C24Cl (stereo not given),inconclusive: 0.625 µM,–
CCCN(CCC)c1c([N+](=O)[O-])cc(C(F)(F)F)cc1[N+](=O)[O-],inconclusive: 2.81 µM,–
C[C@]12CCC(=O)C=C1CC[C@@H]1[C@@H]2CC[C@]2(C)C(=O)CC[C@@H]12,inconclusive: 0.049 µM,inactive
CCC[CH2][Sn]([Cl])([CH2]CCC)[CH2]CCC,–,inactive
CC1(C)CCC(=Cc2ccc(Cl)cc2)C1(O)Cn1cncn1 (stereo not given),inconclusive: 0.232 µM,–
CCCCCOC(=O)c1ccccc1C(=O)OCCCCC,–,inactive
CC(C)Oc1cc(-n2nc(C(C)(C)C)oc2=O)c(Cl)cc1Cl,–,inactive
C[C@]12CCC(=O)C=C1CC[C@@H]1[C@@H]2CC[C@@]2(C)[C@H]1CC[C@]2(C)O,active: 0.000293 µM,–
C#CCOS(=O)OC1CCCCC1Oc1ccc(C(C)(C)C)cc1 (stereo not given),inconclusive: 63.7 µM,–
Oc1ccc(Cl)cc1Cc1ccccc1,inconclusive: 2.71 µM,–
COP(=O)(OC)O/C(=C\Cl)c1cc(Cl)c(Cl)cc1Cl,inconclusive: 100 µM,–
CC(=O)c1cc2c(cc1C)C(C)(C)C(C)CC2(C)C (stereo not given),active: 64.4 µM,–
CC1(C)CCC(Cc2ccc(Cl)cc2)C1(O)Cn1cncn1 (stereo not given),active: 165 µM,–
